Results deposited as PubChem BioAssay AID1508597 (Cure First, 2020)

- Test: 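Knock-downs altering ovarian cancer cell survival with or without PARP inhibitor rucaparib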 (primary screen)
- Cells: human ovarian carcinoma lines grown from tumours: OCI-P5x (papillary serous) and OCI-C5x (clear cell)
- Knock-down reagent: siRNA pool against human genes, 1.25 pmol siRNA per well
- Time to read-out: 72 h or 96 h, depending on the cell culture
- Treatment: rucaparib 20 µM (about IC30) or vehicle, present until read-out
- Rucaparib or vehicle: Vehicle
- Cell line: OCI-C5x (clear cell)
- Read-out: 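ATP luminescence measured at 72 or 96 h according to the culture, then normalised and expressed as percent viability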
- Direction: viability, normalised: higher = more viable cells remaining
- Rule for the call: 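a well counts as a hit if its normalised viability is under 80 percent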
- Calls: active = viability under 80%; inactive = viability 80% or more
This is an unselected part of the about 2,100 reagents, under one of the conditions tested. 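Calls flag viability under 80% in either arm, not effects specific to rucaparib; the reference for percent is not stated.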 Some reagents were tested in more than one well and are listed for each. Not given: the 100% reference.

| gene | technical replicate | viability, normalised (%) | activity call |
| --- | --- | --- | --- |
| TERF1 (GeneID 7013) | 1 | 36 | active |
| TERF1 (GeneID 7013) | 1 | 48.2 | active |
| TERF1 (GeneID 7013) | 2 | 44.9 | active |
| TERF1 (GeneID 7013) | 2 | 37.1 | active |
| TERF1 (GeneID 7013) | 3 | 40.2 | active |
| TERF1 (GeneID 7013) | 3 | 34 | active |
| PDXK (GeneID 8566) | 1 | 54 | active |
| PDXK (GeneID 8566) | 2 | 52 | active |
| PDXK (GeneID 8566) | 3 | 72.8 | active |
| ZAP70 (GeneID 7535) | 1 | 71.7 | active |
| ZAP70 (GeneID 7535) | 2 | 80.8 | inactive |
| ZAP70 (GeneID 7535) | 3 | 79.4 | active |
| ZNF451 (GeneID 26036) | 1 | 18 | active |
| ZNF451 (GeneID 26036) | 2 | 49.1 | active |
| ZNF451 (GeneID 26036) | 3 | 29.6 | active |
| EPHB4 (GeneID 2050) | 1 | 72.9 | active |
| EPHB4 (GeneID 2050) | 2 | 66.6 | active |
| EPHB4 (GeneID 2050) | 3 | 59.7 | active |
| KDM5C (GeneID 8242) | 1 | 34.3 | active |
| KDM5C (GeneID 8242) | 2 | 23.2 | active |
| KDM5C (GeneID 8242) | 3 | 43.2 | active |
| XPA (GeneID 7507) | 1 | 48.5 | active |
| XPA (GeneID 7507) | 2 | 52.5 | active |
| XPA (GeneID 7507) | 3 | 43.5 | active |
| VPS72 (GeneID 6944) | 1 | 22.8 | active |
| VPS72 (GeneID 6944) | 2 | 34 | active |
| VPS72 (GeneID 6944) | 3 | 40.3 | active |
| SPTA1 (GeneID 6708) | 1 | 47.8 | active |
| SPTA1 (GeneID 6708) | 2 | 56.1 | active |
| SPTA1 (GeneID 6708) | 3 | 42.4 | active |
| IP6K1 (GeneID 9807) | 1 | 43.7 | active |
| IP6K1 (GeneID 9807) | 2 | 49.6 | active |
| IP6K1 (GeneID 9807) | 3 | 36.3 | active |
| CLDN18 (GeneID 51208) | 1 | 37.5 | active |
| CLDN18 (GeneID 51208) | 2 | 56.1 | active |
| CLDN18 (GeneID 51208) | 3 | 66.8 | active |
| IRAK4 (GeneID 51135) | 1 | 67.4 | active |
| IRAK4 (GeneID 51135) | 2 | 74.4 | active |
| IRAK4 (GeneID 51135) | 3 | 60.3 | active |
| DGKI (GeneID 9162) | 1 | 57.7 | active |
| DGKI (GeneID 9162) | 2 | 45.1 | active |
| DGKI (GeneID 9162) | 3 | 61.1 | active |
| TOPBP1 (GeneID 11073) | 1 | 44.6 | active |
| TOPBP1 (GeneID 11073) | 2 | 57.1 | active |
| TOPBP1 (GeneID 11073) | 3 | 54.4 | active |

A run of entries of the results above, as a working copy:
| gene | technical replicate | viability, normalised (%) | activity call |
| --- | --- | --- | --- |
| TERF1 (GeneID 7013) | 1 | 48.2 | active |
| TERF1 (GeneID 7013) | 2 | 44.9 | active |
| TERF1 (GeneID 7013) | 2 | 37.1 | active |
| TERF1 (GeneID 7013) | 3 | 40.2 | active |
| TERF1 (GeneID 7013) | 3 | 34 | active |
| PDXK (GeneID 8566) | 1 | 54 | active |
| PDXK (GeneID 8566) | 2 | 52 | active |
| PDXK (GeneID 8566) | 3 | 72.8 | active |
| ZAP70 (GeneID 7535) | 1 | 71.7 | active |

Next reagents follow:
| gene | technical replicate | viability, normalised (%) | activity call |
| --- | --- | --- | --- |
| DAPK3 (GeneID 1613) | 1 | 61.2 | active |
| DAPK3 (GeneID 1613) | 1 | 36.3 | active |
| DAPK3 (GeneID 1613) | 2 | 66.9 | active |
| DAPK3 (GeneID 1613) | 2 | 50.9 | active |
| DAPK3 (GeneID 1613) | 3 | 37.1 | active |
| DAPK3 (GeneID 1613) | 3 | 72.1 | active |
| PLCB2 (GeneID 5330) | 1 | 69.3 | active |
| PLCB2 (GeneID 5330) | 2 | 68.6 | active |
| PLCB2 (GeneID 5330) | 3 | 60.6 | active |
| ZAR1 (GeneID 326340) | 1 | 58.8 | active |
| ZAR1 (GeneID 326340) | 2 | 62.7 | active |
| ZAR1 (GeneID 326340) | 3 | 65.8 | active |
| CBX8 (GeneID 57332) | 1 | 51.2 | active |
| CBX8 (GeneID 57332) | 2 | 48.5 | active |
| CBX8 (GeneID 57332) | 3 | 41.4 | active |
| MED25 (GeneID 81857) | 1 | 39.9 | active |
| MED25 (GeneID 81857) | 2 | 39.4 | active |
| MED25 (GeneID 81857) | 3 | 48 | active |
| DTX3L (GeneID 151636) | 1 | 63.3 | active |
| DTX3L (GeneID 151636) | 2 | 80.9 | inactive |
| DTX3L (GeneID 151636) | 3 | 73.8 | active |
| RINT1 (GeneID 60561) | 1 | 74 | active |
| RINT1 (GeneID 60561) | 2 | 58.8 | active |
| RINT1 (GeneID 60561) | 3 | 50.7 | active |
| TAF5L (GeneID 27097) | 1 | 62 | active |
| TAF5L (GeneID 27097) | 2 | 45.9 | active |
| TAF5L (GeneID 27097) | 3 | 64.7 | active |
| SMC1B (GeneID 27127) | 1 | 38.2 | active |
| SMC1B (GeneID 27127) | 2 | 47.2 | active |
| SMC1B (GeneID 27127) | 3 | 44.4 | active |
